Results published in the supplement of paper PMC10849652.
This is one part of the list.

Protein sequences, listed by entry. Tags and fused reporters are not part of them. Lines headed by an entry give the natural chain unless they say otherwise; changes in a name come on top.
UniProt P09455: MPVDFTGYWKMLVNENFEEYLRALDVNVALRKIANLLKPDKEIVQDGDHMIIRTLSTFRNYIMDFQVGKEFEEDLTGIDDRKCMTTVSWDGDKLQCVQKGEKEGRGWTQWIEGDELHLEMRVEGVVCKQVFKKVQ
UniProt Q8NCN4: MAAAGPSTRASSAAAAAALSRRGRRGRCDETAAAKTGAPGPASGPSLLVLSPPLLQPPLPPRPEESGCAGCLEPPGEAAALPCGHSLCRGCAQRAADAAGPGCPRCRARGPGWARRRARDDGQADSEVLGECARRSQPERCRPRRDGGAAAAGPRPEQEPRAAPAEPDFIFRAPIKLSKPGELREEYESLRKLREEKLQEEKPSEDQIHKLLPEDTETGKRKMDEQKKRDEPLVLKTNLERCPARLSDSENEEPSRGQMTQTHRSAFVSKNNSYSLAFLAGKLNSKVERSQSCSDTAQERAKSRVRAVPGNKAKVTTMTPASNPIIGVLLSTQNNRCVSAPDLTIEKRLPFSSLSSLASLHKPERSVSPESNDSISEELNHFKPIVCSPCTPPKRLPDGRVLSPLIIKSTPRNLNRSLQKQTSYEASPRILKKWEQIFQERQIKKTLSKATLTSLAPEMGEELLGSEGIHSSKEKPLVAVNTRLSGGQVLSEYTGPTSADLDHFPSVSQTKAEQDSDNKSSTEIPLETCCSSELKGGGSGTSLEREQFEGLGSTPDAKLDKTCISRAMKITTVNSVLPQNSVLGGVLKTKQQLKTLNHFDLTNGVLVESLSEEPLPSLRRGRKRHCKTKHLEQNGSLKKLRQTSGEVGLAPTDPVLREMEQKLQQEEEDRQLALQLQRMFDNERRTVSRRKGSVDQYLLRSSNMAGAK
UniProt Q9H4X1: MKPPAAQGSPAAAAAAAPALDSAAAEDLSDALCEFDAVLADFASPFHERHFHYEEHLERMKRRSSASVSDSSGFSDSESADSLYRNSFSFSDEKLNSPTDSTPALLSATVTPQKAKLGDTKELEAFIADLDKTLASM
UniProt Q96K19: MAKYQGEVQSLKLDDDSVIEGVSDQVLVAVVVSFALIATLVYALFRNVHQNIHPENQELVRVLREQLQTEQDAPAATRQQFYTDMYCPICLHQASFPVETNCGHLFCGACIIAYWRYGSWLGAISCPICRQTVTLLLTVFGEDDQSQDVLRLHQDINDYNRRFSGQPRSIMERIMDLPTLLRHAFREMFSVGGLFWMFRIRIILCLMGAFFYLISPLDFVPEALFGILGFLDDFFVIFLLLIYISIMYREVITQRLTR
UniProt Q86XS8: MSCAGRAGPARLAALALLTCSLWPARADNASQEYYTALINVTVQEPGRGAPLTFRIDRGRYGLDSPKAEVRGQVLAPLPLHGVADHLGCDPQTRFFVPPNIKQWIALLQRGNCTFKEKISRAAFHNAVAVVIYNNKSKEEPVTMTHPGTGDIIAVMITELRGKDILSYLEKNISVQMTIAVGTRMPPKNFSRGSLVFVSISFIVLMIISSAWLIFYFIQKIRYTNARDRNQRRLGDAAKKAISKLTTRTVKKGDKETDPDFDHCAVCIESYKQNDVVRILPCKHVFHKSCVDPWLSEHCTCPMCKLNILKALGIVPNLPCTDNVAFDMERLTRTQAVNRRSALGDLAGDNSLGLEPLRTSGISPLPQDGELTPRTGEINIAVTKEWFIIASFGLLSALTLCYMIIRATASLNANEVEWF
UniProt P48380: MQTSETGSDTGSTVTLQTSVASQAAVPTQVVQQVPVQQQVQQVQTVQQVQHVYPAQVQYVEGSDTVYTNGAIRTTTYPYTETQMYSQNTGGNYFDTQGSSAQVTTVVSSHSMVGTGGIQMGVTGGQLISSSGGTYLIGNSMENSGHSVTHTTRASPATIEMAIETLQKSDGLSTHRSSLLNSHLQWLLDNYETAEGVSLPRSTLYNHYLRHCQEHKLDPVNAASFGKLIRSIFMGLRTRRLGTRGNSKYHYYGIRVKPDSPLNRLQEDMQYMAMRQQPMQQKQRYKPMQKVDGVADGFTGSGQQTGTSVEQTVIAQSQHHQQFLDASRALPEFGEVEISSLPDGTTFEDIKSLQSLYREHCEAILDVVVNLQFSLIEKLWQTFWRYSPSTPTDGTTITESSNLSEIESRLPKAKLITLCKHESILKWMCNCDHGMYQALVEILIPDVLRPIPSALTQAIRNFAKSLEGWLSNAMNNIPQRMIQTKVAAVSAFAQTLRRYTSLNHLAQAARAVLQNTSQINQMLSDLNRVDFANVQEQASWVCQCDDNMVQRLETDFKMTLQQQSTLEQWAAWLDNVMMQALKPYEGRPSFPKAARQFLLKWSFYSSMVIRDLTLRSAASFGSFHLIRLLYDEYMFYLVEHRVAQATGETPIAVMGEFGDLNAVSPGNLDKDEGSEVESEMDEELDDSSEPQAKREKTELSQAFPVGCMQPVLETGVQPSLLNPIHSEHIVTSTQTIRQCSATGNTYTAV
UniProt O14593: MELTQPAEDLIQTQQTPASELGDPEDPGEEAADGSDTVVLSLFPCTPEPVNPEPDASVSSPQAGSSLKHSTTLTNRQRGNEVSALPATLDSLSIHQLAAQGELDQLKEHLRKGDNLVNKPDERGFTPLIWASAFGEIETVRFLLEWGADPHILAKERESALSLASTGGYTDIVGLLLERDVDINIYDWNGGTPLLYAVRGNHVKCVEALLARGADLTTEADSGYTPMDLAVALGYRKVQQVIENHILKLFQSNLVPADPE
UniProt P0C7M4: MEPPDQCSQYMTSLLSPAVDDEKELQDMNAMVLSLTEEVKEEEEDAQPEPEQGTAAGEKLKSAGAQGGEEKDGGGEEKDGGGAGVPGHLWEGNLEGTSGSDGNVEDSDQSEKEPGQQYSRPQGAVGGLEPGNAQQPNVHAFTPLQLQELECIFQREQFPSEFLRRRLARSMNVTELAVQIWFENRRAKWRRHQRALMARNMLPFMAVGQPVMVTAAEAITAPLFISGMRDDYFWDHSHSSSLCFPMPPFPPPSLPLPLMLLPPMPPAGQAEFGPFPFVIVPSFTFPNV
UniProt Q5RL73: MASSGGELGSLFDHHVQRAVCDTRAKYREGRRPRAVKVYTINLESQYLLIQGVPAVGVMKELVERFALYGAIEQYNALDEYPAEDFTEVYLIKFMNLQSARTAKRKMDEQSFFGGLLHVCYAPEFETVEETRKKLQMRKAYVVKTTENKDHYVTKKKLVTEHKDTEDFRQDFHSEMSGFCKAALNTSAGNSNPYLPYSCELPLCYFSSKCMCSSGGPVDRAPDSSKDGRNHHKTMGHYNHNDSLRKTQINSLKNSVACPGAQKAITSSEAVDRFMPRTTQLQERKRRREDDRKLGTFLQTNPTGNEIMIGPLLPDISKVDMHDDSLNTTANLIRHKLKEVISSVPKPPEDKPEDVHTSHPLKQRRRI
UniProt Q6ZS17: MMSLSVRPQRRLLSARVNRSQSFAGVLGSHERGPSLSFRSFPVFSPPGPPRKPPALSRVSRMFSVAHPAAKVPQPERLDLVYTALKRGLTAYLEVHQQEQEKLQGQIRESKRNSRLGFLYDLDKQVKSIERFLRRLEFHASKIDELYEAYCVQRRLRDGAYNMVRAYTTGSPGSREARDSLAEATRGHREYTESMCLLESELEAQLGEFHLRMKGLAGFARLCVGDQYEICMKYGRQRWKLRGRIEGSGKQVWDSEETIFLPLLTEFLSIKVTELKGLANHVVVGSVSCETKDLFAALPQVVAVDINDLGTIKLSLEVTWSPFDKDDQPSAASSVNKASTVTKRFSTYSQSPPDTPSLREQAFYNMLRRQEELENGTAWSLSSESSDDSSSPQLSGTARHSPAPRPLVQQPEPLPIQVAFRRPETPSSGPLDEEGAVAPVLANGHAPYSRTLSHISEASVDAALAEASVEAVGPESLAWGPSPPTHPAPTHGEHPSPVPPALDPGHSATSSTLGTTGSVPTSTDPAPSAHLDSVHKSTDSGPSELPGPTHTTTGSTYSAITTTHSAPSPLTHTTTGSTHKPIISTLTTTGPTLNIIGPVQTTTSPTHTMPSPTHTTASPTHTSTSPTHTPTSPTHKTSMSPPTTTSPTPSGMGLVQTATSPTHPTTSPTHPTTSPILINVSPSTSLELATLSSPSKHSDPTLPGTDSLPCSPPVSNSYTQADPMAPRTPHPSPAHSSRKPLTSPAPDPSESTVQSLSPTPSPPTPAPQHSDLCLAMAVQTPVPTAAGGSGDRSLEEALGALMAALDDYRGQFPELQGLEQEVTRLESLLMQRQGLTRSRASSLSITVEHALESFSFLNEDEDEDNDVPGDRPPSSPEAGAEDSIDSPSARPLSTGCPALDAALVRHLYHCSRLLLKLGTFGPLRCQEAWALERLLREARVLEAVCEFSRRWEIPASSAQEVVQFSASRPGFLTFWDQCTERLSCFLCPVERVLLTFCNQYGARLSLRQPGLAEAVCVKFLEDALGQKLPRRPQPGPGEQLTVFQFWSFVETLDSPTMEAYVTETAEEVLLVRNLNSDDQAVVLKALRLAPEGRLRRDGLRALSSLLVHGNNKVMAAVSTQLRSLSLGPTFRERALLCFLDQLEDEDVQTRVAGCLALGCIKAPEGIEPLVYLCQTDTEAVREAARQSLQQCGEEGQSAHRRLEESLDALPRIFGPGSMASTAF
UniProt Q8WVD5: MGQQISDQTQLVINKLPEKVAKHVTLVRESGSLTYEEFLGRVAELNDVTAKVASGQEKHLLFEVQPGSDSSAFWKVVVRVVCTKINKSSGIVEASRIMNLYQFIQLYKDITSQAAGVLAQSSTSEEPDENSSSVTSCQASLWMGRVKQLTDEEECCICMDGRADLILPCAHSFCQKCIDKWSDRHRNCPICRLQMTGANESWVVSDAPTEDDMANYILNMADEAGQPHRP
UniProt Q9Y3C5: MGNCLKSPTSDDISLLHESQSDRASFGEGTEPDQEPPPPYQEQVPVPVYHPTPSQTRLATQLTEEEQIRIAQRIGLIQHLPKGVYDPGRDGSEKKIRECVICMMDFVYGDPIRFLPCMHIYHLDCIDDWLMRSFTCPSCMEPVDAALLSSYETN
UniProt Q9H1E1: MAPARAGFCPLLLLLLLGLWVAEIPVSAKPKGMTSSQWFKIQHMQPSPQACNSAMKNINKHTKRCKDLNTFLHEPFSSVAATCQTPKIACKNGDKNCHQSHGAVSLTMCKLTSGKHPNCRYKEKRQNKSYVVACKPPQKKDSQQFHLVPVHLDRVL
UniProt Q92963, whole entry, looked up: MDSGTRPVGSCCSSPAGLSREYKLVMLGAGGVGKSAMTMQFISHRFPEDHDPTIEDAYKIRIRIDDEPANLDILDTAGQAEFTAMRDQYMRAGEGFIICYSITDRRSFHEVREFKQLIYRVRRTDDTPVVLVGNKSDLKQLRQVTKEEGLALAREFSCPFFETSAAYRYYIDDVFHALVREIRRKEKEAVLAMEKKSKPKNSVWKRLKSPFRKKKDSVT
UniProt Q8WU17: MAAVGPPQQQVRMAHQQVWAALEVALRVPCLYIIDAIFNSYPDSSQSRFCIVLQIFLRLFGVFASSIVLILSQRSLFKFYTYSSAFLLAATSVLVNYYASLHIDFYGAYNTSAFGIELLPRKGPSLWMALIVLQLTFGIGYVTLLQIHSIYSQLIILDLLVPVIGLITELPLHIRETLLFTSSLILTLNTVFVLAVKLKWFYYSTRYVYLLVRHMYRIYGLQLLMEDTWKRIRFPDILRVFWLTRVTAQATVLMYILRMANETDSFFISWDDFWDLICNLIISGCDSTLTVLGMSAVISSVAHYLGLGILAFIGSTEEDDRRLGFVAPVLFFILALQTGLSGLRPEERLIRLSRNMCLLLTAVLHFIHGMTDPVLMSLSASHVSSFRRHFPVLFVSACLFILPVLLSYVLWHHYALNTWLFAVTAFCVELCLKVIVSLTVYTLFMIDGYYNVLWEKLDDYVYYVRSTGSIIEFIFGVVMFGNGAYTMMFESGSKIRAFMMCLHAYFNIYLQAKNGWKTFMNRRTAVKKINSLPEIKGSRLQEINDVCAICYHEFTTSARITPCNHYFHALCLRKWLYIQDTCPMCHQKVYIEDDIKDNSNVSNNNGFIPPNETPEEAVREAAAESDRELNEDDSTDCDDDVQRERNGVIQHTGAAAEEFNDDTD
UniProt Q9NVN3: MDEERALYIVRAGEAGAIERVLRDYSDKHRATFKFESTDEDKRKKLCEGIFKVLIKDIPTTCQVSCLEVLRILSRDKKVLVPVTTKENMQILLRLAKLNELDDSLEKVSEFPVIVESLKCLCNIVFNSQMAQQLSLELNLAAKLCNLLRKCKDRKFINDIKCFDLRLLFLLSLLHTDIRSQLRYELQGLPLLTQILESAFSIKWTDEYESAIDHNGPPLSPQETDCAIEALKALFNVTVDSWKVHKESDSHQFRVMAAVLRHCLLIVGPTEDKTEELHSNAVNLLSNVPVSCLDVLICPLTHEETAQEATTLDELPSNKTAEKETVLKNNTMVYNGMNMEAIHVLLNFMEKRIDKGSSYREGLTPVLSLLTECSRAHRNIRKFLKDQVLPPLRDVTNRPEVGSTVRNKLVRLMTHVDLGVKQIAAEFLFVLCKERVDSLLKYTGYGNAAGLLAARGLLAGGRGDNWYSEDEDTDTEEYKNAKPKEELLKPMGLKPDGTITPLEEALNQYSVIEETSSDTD

Key:
Experiment in all cases: log2 fold change, soluble protein after heating vs DMSO (PISA); higher = thermal stabilisation; K562 cells, 10 uM, 30 min; active = over 0.2 and 3.5 SD of the protein, either way, in both replicates (recomputed)
[1] = compound: CN1CCN(CCOc2cc(OC3CCOCC3)c3c(Nc4c(Cl)ccc5c4OCO5)ncnc3c2)CC1 [saracatinib]
Procedure, shortened: (§1)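 Soluble protein was defined as the supernatant after 21,000xg for 90 min. It came from K562 cells at 2×10^6 cells/mL given 10 μM compound for 30 min, heated in aliquots for 3 min across 48°C-58°C, pooled, and extracted in PBS with 0.5% NP-40 at 4°C, and was quantified by TMTpro 16plex LC-MS/MS with equalised channel sums. Thermal stability against control samples, from duplicates, is reported as log2 fold change.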

[2] = compound: CNc1nc(-c2ccc3c(N)n[nH]c3c2)cc(N2C[C@@H](C(=O)NC3CCCCC3)CC[C@H]2C)n1
Procedure, shortened: as §1

[3] = compound: CS(=O)(=O)N1CCN(Cc2cc3nc(-c4cccc5[nH]ncc45)nc(N4CCOCC4)c3s2)CC1 [pictilisib]
Procedure, shortened: as §1

[4] = compound: CNC(=O)C1=CC=CC=C1NC2=NC(=NC=C2Cl)NC3=C(C=C(C=C3)N4CCOCC4)OC
Procedure, shortened: as §1

[5] = compound: CNC(=O)c1ccc(Nc2ncc(C(F)(F)F)c(NCc3nccnc3N(C)S(C)(=O)=O)n2)cc1 [defactinib]
Procedure, shortened: as §1

[6] = compound: CNCc1ccc(-c2[nH]c3cc(F)cc4c3c2CCNC4=O)cc1 [rucaparib]
Procedure, shortened: as §1

[7] = compound: COC(=O)N[C@@H](C)CNc1nccc(-c2cn(C(C)C)nc2-c2cc(Cl)cc(NS(C)(=O)=O)c2F)n1 [encorafenib]
Procedure, shortened: as §1

[8] = compound: COC(=O)[C@H](CCSC)NC(=O)C1=C(C=C(C=C1)NC[C@H](CS)N)C2=CC=CC=C2
Procedure, shortened: as §1

[9] = compound: COC1=CC=C(C=C1)CN2C=CC3=C2C=C(C=C3)C(=O)NO
Procedure, shortened: as §1

[10] = compound: COc1cc2nc(-c3cc(F)ccc3O)nc(N[C@@H]3CNC[C@H]3C(C)(C)O)c2cc1OC
Procedure, shortened: as §1

[11] = compound: COc1cc2ncnc(Nc3ccc(F)c(Cl)c3)c2cc1OCCCN1CCOCC1 [gefitinib]
Procedure, shortened: as §1

[12] = compound: CS(=O)(=O)CCNCc1ccc(-c2ccc3ncnc(Nc4ccc(OCc5cccc(F)c5)c(Cl)c4)c3c2)o1 [lapatinib]
Procedure, shortened: as §1

[13] = compound: CN1CC[C@H](c2c(O)cc(O)c3c(=O)cc(-c4ccccc4Cl)oc23)[C@H](O)C1 [alvocidib]
Procedure, shortened: as §1

[14] = compound: CN1CCc2c(c3ccccc3n2Cc2ccc(C(=O)NO)cc2)C1 [Tubastatin A]
Procedure, shortened: as §1

[15] = compound: CO[C@H]1C[C@@H]2CC[C@@H](C)[C@@](O)(O2)C(=O)C(=O)N2CCCC[C@H]2C(=O)O[C@H]([C@H](C)C[C@@H]2CC[C@H](n3cnnn3)[C@H](OC)C2)CC(=O)[C@H](C)/C=C(\C)[C@@H](O)[C@@H](OC)C(=O)[C@H](C)C[C@H](C)/C=C/C=C/C=C/1C [zotarolimus]
Procedure, shortened: as §1

[16] = compound: COc1cc(C(=O)O)ccc1NC(=O)[C@@H]1N[C@@H](CC(C)(C)C)[C@](C#N)(c2ccc(Cl)cc2F)[C@H]1c1cccc(Cl)c1F [idasanutlin]
Procedure, shortened: as §1

[17] = compound: COc1cc(Nc2ncc3c(n2)-c2ccc(Cl)cc2C(c2c(F)cccc2OC)=NC3)ccc1C(=O)O [alisertib]
Procedure, shortened: as §1

[18] = compound: COc1cccc2cc(-c3nc([C@H]4CC[C@H](C(=O)O)CC4)n4ncnc(N)c34)[nH]c12
Procedure, shortened: as §1

[19] = compound: CN1CCN(c2nc(C3=C(c4c[nH]c5ccccc45)C(=O)NC3=O)c3ccccc3n2)CC1 [sotrastaurin]
Procedure, shortened: as §1

[20] = compound: CON(C)C(=O)N1N=C(c2cc(F)ccc2F)S[C@@]1(CCCN)c1ccccc1 [filanesib]
Procedure, shortened: as §1

Measured: log2 fold change

RBP1 isoform 3 (UniProt P09455)
inactive: [1] 0.178 | [2] -0.009 | [3] -0.309

RNF24 isoform 2 (UniProt Q9Y225)
inactive: [1] -0.123 | [4] -0.031 | [5] -0.098 | [6] 0.097 | [2] -0.019 | [7] 0.198 | [8] 0.109 | [9] -0.05 | [10] -0.02 | [11] -0.005 | [12] -0.043 | [3] 0.06

RNF169 (UniProt Q8NCN4)
inactive: [1] 0.086 | [13] 0.014 | [14] 0.098 | [2] -0.088 | [15] 0.044 | [10] -0.063 | [12] -0.038 | [3] -0.054

RC3H2 (UniProt Q9HBD1)
inactive: [14] -0.263 | [10] -0.144 | [12] 0.006 | [3] -0.064

RNF185 (UniProt Q96GF1)
inactive: [14] 0.011 | [4] 0.001 | [5] -0.023 | [6] 0.006 | [7] -0.094 | [8] 0.125 | [15] 0.117 | [16] -0.143 | [17] -0.145 | [10] -0.175 | [11] 0.007 | [18] -0.016 | [12] -0.111 | [3] 0.076

RGCC (UniProt Q9H4X1)
inactive: [4] -0.077 | [16] 0.294 | [11] 0.164 | [3] 0.011

RGP1 (UniProt Q92546)
inactive: [19] 0.056 | [13] 0.071 | [14] -0.056 | [4] -0.024 | [5] -0.001 | [8] 0.107 | [20] -0.314 | [15] 0.011 | [16] 0.069 | [17] 0.095 | [11] 0.019 | [18] 0.04

RNF220 isoform 3 (UniProt Q5VTB9)
inactive: [4] -0.067 | [16] 0.073 | [10] -0.153 | [12] 0.261

RNF111 isoform 3 (UniProt Q6ZNA4)
inactive: [4] -0.151 | [9] -0.368 | [11] 0.016 | [3] -0.079

RNF170 (UniProt Q96K19)
inactive: [1] 0.257 | [13] 0.052 | [5] -0.166 | [6] -0.028 | [2] 0.037 | [7] 0.067 | [8] -0.186 | [9] 0.048 | [15] 0.084 | [16] 0.019 | [17] 0.101 | [10] -0.107 | [11] 0.18 | [18] 0.125 | [12] 0.027 | [3] -0.015

RECQL5 (UniProt O94762)
inactive: [1] 0.075 | [13] 0.11 | [5] -0.111 | [2] -0.172 | [8] 0.093 | [15] 0.027 | [3] 0.027

RNF130 (UniProt Q86XS8)
inactive: [13] -0.121 | [4] 0.019 | [6] -0.192 | [7] -0.022 | [9] -0.106 | [15] 0.026 | [17] 0.001 | [10] 0.155 | [18] 0.121 | [12] -0.089

RFX3 (UniProt P48380)
inactive: [19] -0.007 | [4] -0.054 | [6] -0.11 | [7] -0.032 | [20] -0.041 | [10] -0.384 | [12] 0.002

RHBDD2 isoform 2 (UniProt Q6NTF9)
inactive: [1] 0.023 | [13] 0.071 | [4] -0.028 | [6] -0.094 | [2] -0.101 | [7] -0.048 | [9] 0.076 | [15] -0.083 | [16] -0.064 | [17] 0.116 | [11] -0.168 | [18] -0.043 | [3] 0.149

RING1 (UniProt Q06587)
inactive: [19] -0.086 | [13] -0.25 | [14] 0.072 | [4] 0.075 | [5] -0.226 | [6] 0.027 | [7] 0.08 | [8] -0.086 | [9] 0.058 | [20] -0.004 | [15] 0.067 | [16] 0.189 | [17] 0 | [10] -0.021 | [11] 0.026 | [18] 0.033 | [12] 0.014 | [3] -0.074

RFXANK (UniProt O14593)
inactive: [3] -0.175

RHOXF2B (UniProt P0C7M4)
inactive: [19] 0.419 | [20] -0.259 | [16] -0.195 | [10] -0.165 | [12] -0.077

RNASE4 (UniProt P34096)
inactive: [19] 0.071 | [13] 0.008 | [14] 0.003 | [4] -0.058 | [5] 0.066 | [6] -0.017 | [7] 0.018 | [8] 0.102 | [9] -0.021 | [20] -0.072 | [15] 0.033 | [16] -0.03 | [17] 0.022 | [10] 0.045 | [11] -0.149 | [18] -0.241 | [12] -0.011 | [3] -0.103

RHD (UniProt Q02161)
inactive: [13] 0.018 | [14] -0.081 | [4] 0.064 | [9] 0.078 | [15] -0.071 | [16] -0.143 | [10] -0.113 | [11] -0.125 | [12] 0.021

RNF115 (UniProt Q9Y4L5)
inactive: [11] -0.053

RBM48 isoform 2 (UniProt Q5RL73)
inactive: [19] -0.001 | [14] 0.016 | [4] -0.065 | [9] -0.046 | [20] -0.049 | [15] -0.076 | [16] 0.04 | [10] -0.046 | [11] -0.024 | [12] 0.011 | [3] -0.083

RNASEL (UniProt Q05823)
inactive: [17] -0.179 | [18] -0.33 | [3] 0.069

RIPOR1 isoform 4 (UniProt Q6ZS17)
inactive: [14] 0.143 | [9] -0.293

RFWD3 (UniProt Q6PCD5)
inactive: [19] 0.053 | [13] 0.015 | [4] -0.015 | [5] 0.216 | [8] -0.029 | [20] -0.008 | [15] -0.006 | [16] -0.081 | [10] 0.157 | [12] -0.157

RNF141 (UniProt Q8WVD5)
inactive: [19] -0.041 | [14] -0.032 | [4] 0.053 | [5] -0.028 | [8] 0.121 | [9] -0.22 | [20] 0.04 | [10] -0.061 | [11] 0.124 | [12] -0.103 | [3] 0.116

RNF11 (UniProt Q9Y3C5)
inactive: [6] -0.022 | [7] -0.043 | [9] -0.168

RBMY1E (UniProt A6NEQ0)
inactive: [14] 0.016 | [4] -0.049 | [6] -0.055 | [7] 0.182 | [9] 0.078 | [15] 0.083 | [17] -0.035 | [11] -0.07 | [18] 0.126 | [12] 0.044 | [3] 0.015
active: [10] -0.476

RERE (UniProt Q9P2R6)
inactive: [19] -0.059 | [4] -0.031 | [9] -0.23 | [20] 0.018 | [17] -0.29 | [11] 0.012 | [18] -0.064

Reprinted from the entries so far (2 entries):
RHBDD2 isoform 2 (UniProt Q6NTF9)
inactive: [1] 0.023 | [13] 0.071 | [4] -0.028 | [6] -0.094 | [2] -0.101 | [7] -0.048 | [9] 0.076 | [15] -0.083 | [16] -0.064 | [17] 0.116 | [11] -0.168 | [18] -0.043 | [3] 0.149

RING1 (UniProt Q06587)
inactive: [19] -0.086 | [13] -0.25 | [14] 0.072 | [4] 0.075 | [5] -0.226 | [6] 0.027 | [7] 0.08 | [8] -0.086 | [9] 0.058 | [20] -0.004 | [15] 0.067 | [16] 0.189 | [17] 0 | [10] -0.021 | [11] 0.026 | [18] 0.033 | [12] 0.014 | [3] -0.074

Later entries:

RCL1 (UniProt Q5VZU2)
inactive: [1] -0.291 | [14] 0.274 | [2] 0.017 | [16] -0.096

RFX5 (UniProt P48382)
inactive: [19] -0.128 | [4] -0.109 | [9] -0.034 | [20] 0.101 | [16] 0.042 | [10] 0.003 | [11] 0.092 | [12] -0.102 | [3] 0.062

RNASE7 (UniProt Q9H1E1)
inactive: [16] 0.575

RIT1 isoform 3 (UniProt Q92963)
inactive: [4] 0.081 | [9] -0.083 | [3] 0.085

RNF139 (UniProt Q8WU17)
inactive: [19] 0.079 | [14] 0.062 | [4] 0.063 | [5] -0.04 | [6] -0.064 | [7] 0.054 | [8] 0.04 | [9] 0.013 | [20] -0.043 | [17] -0.001 | [11] -0.011 | [18] 0.176 | [3] -0.039

RIMKLB (UniProt Q9ULI2)
inactive: [19] -0.001 | [4] -0.143 | [6] 0.075 | [7] -0.02 | [9] -0.14 | [20] -0.137 | [17] 0.743 | [10] -0.025 | [11] 0.02 | [18] -0.001 | [12] -0.022

RGS14 (UniProt O43566)
inactive: [13] 0.302 | [14] 0.021 | [4] -0.111 | [5] 0.118 | [6] 0.009 | [7] -0.336 | [8] 0.11 | [15] -0.064 | [16] 0.114 | [17] -0.289 | [11] -0.01 | [18] 0.101 | [3] -0.004

RGN (UniProt Q15493)
inactive: [19] 0.022 | [14] -0.079 | [5] 0.137 | [6] -0.151 | [7] -0.031 | [8] -0.027 | [20] 0.098 | [16] 0.064 | [10] 0.114 | [11] -0.041 | [12] -0.158

RMDN2 isoform 2 (UniProt Q96LZ7)
inactive: [5] -0.218 | [8] -0.206 | [9] 0.008 | [17] 0.389 | [11] -0.418 | [18] 0.191

RIC8B isoform 1 (UniProt Q9NVN3)
inactive: [4] -0.245 | [9] -0.02
